Measured values reported in PubChem BioAssay AID188 (DTP/NCI, 2004).
Values are animals surviving of animals treated; these mice carried no tumour. Counts of survivors are from the toxicity check (mostly the fifth day) where no day follows; animals may have died later. Schedules are NCI's codes, read here as Q, the interval in days (D) or hours (H), X, the number of doses. Some entries hold several experiments; the values are given in rising order.

Test system: CD2F1 mice, nontumored, toxicity/survival
Assay: NCI In Vivo Anticancer Drug Screen. Data for tumor model Nontumored Animals (Toxicity Test) in CD2F1 (CDF1) mice

C1CC[N-]CC1.C1CC[N-]CC1.C1CC[N-]CC1.[Cl][Rh]([Cl])[Cl]
survivor count (dose: 1.0 mg/kg/injection, schedule: Q03HX024 (ip), vehicle: saline): 5 of 8 and 8 of 8
survivor count (dose: 2.0 mg/kg/injection, schedule: Q03HX008 (ip), vehicle: saline): 8 of 8
survivor count (dose: 2.0 mg/kg/injection, schedule: Q03HX016 (ip), vehicle: saline): 8 of 8
survivor count (dose: 2.0 mg/kg/injection, schedule: Q03HX024 (ip), vehicle: saline): 8 of 8
survivor count (dose: 4.0 mg/kg/injection, schedule: Q01DX009 (ip), vehicle: saline): 8 of 8
survivor count (dose: 4.0 mg/kg/injection, schedule: Q03HX008 (ip), vehicle: saline): 8 of 8
survivor count (dose: 4.0 mg/kg/injection, schedule: Q03HX016 (ip), vehicle: saline): 8 of 8
survivor count (dose: 4.0 mg/kg/injection, schedule: Q03HX024 (ip), vehicle: saline): 8 of 8
survivor count (dose: 8.0 mg/kg/injection, schedule: Q01DX009 (ip), vehicle: saline): 8 of 8
survivor count (dose: 8.0 mg/kg/injection, schedule: Q03HX008 (ip), vehicle: saline): 8 of 8
survivor count (dose: 8.0 mg/kg/injection, schedule: Q03HX016 (ip), vehicle: saline): 7 of 8 and 8 of 8
survivor count (dose: 8.0 mg/kg/injection, schedule: Q03HX024 (ip), vehicle: saline): 8 of 8
survivor count (dose: 8.0 mg/kg/injection, schedule: Q04DX003 (ip), vehicle: saline): 8 of 8
survivor count (dose: 16.0 mg/kg/injection, schedule: Q01DX001 (ip), vehicle: saline): 8 of 8
survivor count (dose: 16.0 mg/kg/injection, schedule: Q01DX009 (ip), vehicle: saline): 8 of 8
survivor count (dose: 16.0 mg/kg/injection, schedule: Q03HX008 (ip), vehicle: saline): 8 of 8
survivor count (dose: 16.0 mg/kg/injection, schedule: Q03HX016 (ip), vehicle: saline): 8 of 8
survivor count (dose: 16.0 mg/kg/injection, schedule: Q03HX024 (ip), vehicle: saline): 8 of 8
survivor count (dose: 16.0 mg/kg/injection, schedule: Q04DX003 (ip), vehicle: saline): 8 of 8
survivor count (dose: 16.0 mg/kg/injection, schedule: Q08DX002 (ip), vehicle: saline): 8 of 8
survivor count (dose: 32.0 mg/kg/injection, schedule: Q01DX001 (ip), vehicle: saline): 8 of 8
survivor count (dose: 32.0 mg/kg/injection, schedule: Q01DX009 (ip), vehicle: saline): 8 of 8
survivor count (dose: 32.0 mg/kg/injection, schedule: Q03HX008 (ip), vehicle: saline): 7 of 8 and 8 of 8
survivor count (dose: 32.0 mg/kg/injection, schedule: Q03HX016 (ip), vehicle: saline): 4 of 8 and 8 of 8
survivor count (dose: 32.0 mg/kg/injection, schedule: Q03HX024 (ip), vehicle: saline): 7 of 8 and 8 of 8
survivor count (dose: 32.0 mg/kg/injection, schedule: Q04DX003 (ip), vehicle: saline): 8 of 8
survivor count (dose: 32.0 mg/kg/injection, schedule: Q08DX002 (ip), vehicle: saline): 8 of 8
survivor count (dose: 64.0 mg/kg/injection, schedule: Q01DX001 (ip), vehicle: saline): 8 of 8
survivor count (dose: 64.0 mg/kg/injection, schedule: Q01DX009 (ip), vehicle: saline): 7 of 8 and 8 of 8
survivor count (dose: 64.0 mg/kg/injection, schedule: Q03HX008 (ip), vehicle: saline): 0 of 8 and 2 of 8
survivor count (dose: 64.0 mg/kg/injection, schedule: Q03HX016 (ip), vehicle: saline): 0 of 8 and 3 of 8
survivor count (dose: 64.0 mg/kg/injection, schedule: Q04DX003 (ip), vehicle: saline): 8 of 8
survivor count (dose: 64.0 mg/kg/injection, schedule: Q08DX002 (ip), vehicle: saline): 8 of 8
survivor count (dose: 128.0 mg/kg/injection, schedule: Q01DX001 (ip), vehicle: saline): 7 of 8
survivor count (dose: 128.0 mg/kg/injection, schedule: Q01DX009 (ip), vehicle: saline): 1 of 8 and 3 of 8
survivor count (dose: 128.0 mg/kg/injection, schedule: Q04DX003 (ip), vehicle: saline): 8 of 8
survivor count (dose: 128.0 mg/kg/injection, schedule: Q08DX002 (ip), vehicle: saline): 7 of 8 and 8 of 8
survivor count (dose: 256.0 mg/kg/injection, schedule: Q01DX001 (ip), vehicle: saline): 4 of 8
survivor count (dose: 256.0 mg/kg/injection, schedule: Q04DX003 (ip), vehicle: saline): 2 of 8 and 3 of 8
survivor count (dose: 256.0 mg/kg/injection, schedule: Q08DX002 (ip), vehicle: saline): 0 of 8 and 2 of 8
survivor count (dose: 512.0 mg/kg/injection, schedule: Q01DX001 (ip), vehicle: saline): 0 of 8 and 2 of 8
survivor count (dose: 512.0 mg/kg/injection, schedule: Q08DX002 (ip), vehicle: saline): 1 of 8 and 4 of 8

CC(=O)Nc1nc(Br)c2ccccc2c1-c1ccc(N(CCO)CCOS(=O)(=O)c2ccc(C)cc2)cc1
survivor count (dose: 1.0 mg/kg/injection, schedule: Q01DX001 (ip), vehicle: DMSO): 2 of 2
survivor count (dose: 10.0 mg/kg/injection, schedule: Q01DX001 (ip), vehicle: DMSO): 2 of 2
survivor count (dose: 100.0 mg/kg/injection, schedule: Q01DX001 (ip), vehicle: DMSO): 2 of 2

OCN(CO)c1nc(CCC(Br)(Br)Br)nc(N(CO)CO)n1
survivor count (dose: 1.0 mg/kg/injection, schedule: Q01DX001 (ip), vehicle: distilled water + Tween-80): 2 of 2
survivor count (dose: 10.0 mg/kg/injection, schedule: Q01DX001 (ip), vehicle: distilled water + Tween-80): 2 of 2
survivor count (dose: 100.0 mg/kg/injection, schedule: Q01DX001 (ip), vehicle: distilled water + Tween-80): 2 of 2

CCn1cnc2c(=S)nc[nH]c21
survivor count (dose: 9.4 mg/kg/injection, schedule: Q03HX024 (ip), vehicle: saline): 8 of 8
survivor count (dose: 15.0 mg/kg/injection, schedule: Q01DX009 (ip), vehicle: saline): 8 of 8
survivor count (dose: 15.0 mg/kg/injection, schedule: Q03HX008 (ip), vehicle: saline): 8 of 8
survivor count (dose: 18.8 mg/kg/injection, schedule: Q03HX016 (ip), vehicle: saline): 8 of 8
survivor count (dose: 18.8 mg/kg/injection, schedule: Q03HX024 (ip), vehicle: saline): 8 of 8
survivor count (dose: 30.0 mg/kg/injection, schedule: Q01DX009 (ip), vehicle: saline): 8 of 8
survivor count (dose: 30.0 mg/kg/injection, schedule: Q03HX008 (ip), vehicle: saline): 8 of 8
survivor count (dose: 37.5 mg/kg/injection, schedule: Q03HX016 (ip), vehicle: saline): 8 of 8
survivor count (dose: 37.5 mg/kg/injection, schedule: Q03HX024 (ip), vehicle: saline): 8 of 8
survivor count (dose: 56.3 mg/kg/injection, schedule: Q03HX024 (ip), vehicle: saline): 8 of 8
survivor count (dose: 60.0 mg/kg/injection, schedule: Q01DX009 (ip), vehicle: saline): 8 of 8
survivor count (dose: 60.0 mg/kg/injection, schedule: Q03HX008 (ip), vehicle: saline): 8 of 8
survivor count (dose: 75.0 mg/kg/injection, schedule: Q03HX016 (ip), vehicle: saline): 8 of 8
survivor count (dose: 75.0 mg/kg/injection, schedule: Q04DX003 (ip), vehicle: saline): 8 of 8
survivor count (dose: 90.0 mg/kg/injection, schedule: Q03HX008 (ip), vehicle: saline): 8 of 8
survivor count (dose: 120.0 mg/kg/injection, schedule: Q01DX009 (ip), vehicle: saline): 8 of 8
survivor count (dose: 150.0 mg/kg/injection, schedule: Q01DX001 (ip), vehicle: saline): 8 of 8
survivor count (dose: 150.0 mg/kg/injection, schedule: Q04DX003 (ip), vehicle: saline): 8 of 8
survivor count (dose: 150.0 mg/kg/injection, schedule: Q08DX002 (ip), vehicle: saline): 8 of 8
survivor count (dose: 240.0 mg/kg/injection, schedule: Q01DX009 (ip), vehicle: saline): 5 of 8
survivor count (dose: 300.0 mg/kg/injection, schedule: Q01DX001 (ip), vehicle: saline): 7 of 8
survivor count (dose: 300.0 mg/kg/injection, schedule: Q04DX003 (ip), vehicle: saline): 8 of 8
survivor count (dose: 300.0 mg/kg/injection, schedule: Q08DX002 (ip), vehicle: saline): 7 of 8
survivor count (dose: 600.0 mg/kg/injection, schedule: Q01DX001 (ip), vehicle: saline): 3 of 8
survivor count (dose: 600.0 mg/kg/injection, schedule: Q08DX002 (ip), vehicle: saline): 1 of 8
